Reference: paper PMC12267056 (Nature, 2025)
These are yes or no findings as the source states them, for the method shown.

By UniProt entry, the sequences of proteins in these tests, tags left out.
UniProt P78383: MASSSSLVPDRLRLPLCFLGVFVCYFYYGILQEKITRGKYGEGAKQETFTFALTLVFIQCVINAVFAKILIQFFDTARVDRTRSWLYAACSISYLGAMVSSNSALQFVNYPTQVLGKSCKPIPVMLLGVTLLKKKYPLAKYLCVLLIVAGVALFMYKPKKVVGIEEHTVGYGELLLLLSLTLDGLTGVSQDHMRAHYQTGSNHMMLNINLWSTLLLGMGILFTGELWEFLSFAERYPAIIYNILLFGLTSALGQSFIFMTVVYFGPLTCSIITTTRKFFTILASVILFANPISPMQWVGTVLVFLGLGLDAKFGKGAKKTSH

Biological target: human SLC35B1 (wild type) (human) (UniProt P78383)
Assay: cryo-EM structure; SLC35B1-Fv-MBP complex isolated by SEC in 20 mM HEPES pH 7.5, 150 mM NaCl, 0.006% GDN; without nucleotide or with 5 mM AMP-PNP or 5 mM ADP; MBP masked in local refinement; both purified

binding: no binding
Substance: human SLC35B1 (wild type) (from UniProt P78383 1-322)
